Data reported in paper PMC4460818.
Results are given in words; binding and its absence hold for the method and conditions named. Binding seen in cells or lysates may run through a third protein. Some results given as binding are weak or reduced against the parent protein; the word gives no strength. For some of these results: Sequences can lack the tags named with a protein.

By UniProt entry, the sequences of proteins in these tests, tags left out. Where a name states a change or a piece, a line headed by the entry shows the natural chain unless it says otherwise. Chains listed by the source or under a name are the forms on record and can include a tag or linker.
UniProt Q15208: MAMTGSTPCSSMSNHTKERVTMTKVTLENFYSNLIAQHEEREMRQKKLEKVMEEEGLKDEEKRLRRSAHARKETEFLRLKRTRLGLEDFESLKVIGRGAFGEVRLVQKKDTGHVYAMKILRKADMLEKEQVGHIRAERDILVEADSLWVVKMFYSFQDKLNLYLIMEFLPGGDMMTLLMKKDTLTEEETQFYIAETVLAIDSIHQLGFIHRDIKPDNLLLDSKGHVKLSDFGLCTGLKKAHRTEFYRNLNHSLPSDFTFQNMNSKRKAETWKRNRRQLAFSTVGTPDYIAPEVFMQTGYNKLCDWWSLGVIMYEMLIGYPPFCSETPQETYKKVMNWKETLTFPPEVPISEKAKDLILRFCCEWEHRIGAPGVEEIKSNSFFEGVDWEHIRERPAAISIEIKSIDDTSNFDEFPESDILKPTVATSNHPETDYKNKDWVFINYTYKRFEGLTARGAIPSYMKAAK
FLAG-NDR1^3A (Q15208, form named): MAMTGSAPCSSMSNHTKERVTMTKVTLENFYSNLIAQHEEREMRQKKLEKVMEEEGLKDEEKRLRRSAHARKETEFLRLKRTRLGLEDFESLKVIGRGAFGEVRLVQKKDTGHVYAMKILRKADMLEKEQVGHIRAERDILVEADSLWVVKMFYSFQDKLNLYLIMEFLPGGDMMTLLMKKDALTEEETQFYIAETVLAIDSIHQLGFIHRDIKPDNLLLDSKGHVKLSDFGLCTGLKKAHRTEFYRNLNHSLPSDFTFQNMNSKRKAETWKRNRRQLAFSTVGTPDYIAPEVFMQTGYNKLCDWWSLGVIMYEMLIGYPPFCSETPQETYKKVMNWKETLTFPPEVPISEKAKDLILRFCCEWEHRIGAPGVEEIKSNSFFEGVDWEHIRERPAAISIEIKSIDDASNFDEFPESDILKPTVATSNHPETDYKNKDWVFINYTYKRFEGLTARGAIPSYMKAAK
FLAG-NDR1^3E (Q15208, form named): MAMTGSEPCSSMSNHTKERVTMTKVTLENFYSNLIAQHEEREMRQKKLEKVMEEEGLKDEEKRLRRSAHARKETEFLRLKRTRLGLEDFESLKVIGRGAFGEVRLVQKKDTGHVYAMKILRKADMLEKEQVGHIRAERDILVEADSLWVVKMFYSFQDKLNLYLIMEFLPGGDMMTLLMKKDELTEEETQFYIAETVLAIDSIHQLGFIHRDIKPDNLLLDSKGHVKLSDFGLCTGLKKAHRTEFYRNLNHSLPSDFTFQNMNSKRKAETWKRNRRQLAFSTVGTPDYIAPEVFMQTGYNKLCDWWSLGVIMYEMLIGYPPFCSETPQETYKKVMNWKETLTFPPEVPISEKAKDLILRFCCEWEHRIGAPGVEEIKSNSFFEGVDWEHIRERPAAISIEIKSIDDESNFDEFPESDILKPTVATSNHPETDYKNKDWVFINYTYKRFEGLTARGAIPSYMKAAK

What was measured:
[1] = target: FLAG-NDR1 wild type (human) (UniProt Q15208); assay: co-IP; asynchronized 293T cells expressing mCherry-Mob2, GFP-Mob1A and FLAG-NDR1 (WT, 3A or 3E) together; immunoprecipitation with Flag antibody; immunoblot with Flag, GFP and Cherry antibodies
FLAG-NDR1^3A (human) = FLAG-NDR1^3A (human) (UniProt Q15208); assay: as above
FLAG-NDR1^3E (human) = FLAG-NDR1^3E (human) (UniProt Q15208); assay: as above
LAP-tagged NDR1 (human) = LAP-tagged NDR1 (human) (UniProt Q15208); assay: co-IP; HeLa cells stably expressing LAP-NDR1, synchronized, mitotic cells with or without the PLK1 inhibitor BI2536; immunoprecipitation with GFP-Trap agarose beads; immunoblot for GFP, actin, Mob1 and Mob2

B1: mCherry-Mob2 (protein, UniProt Q70IA6 1-237)
chain: MDWLMGKSKAKPNGKKPAAEERKAYLEPEHTKARITDFQFKELVVLPREIDLNEWLASNTTTFFHHINLQYSTISEFCTGETCQTMAVCNTQYYWYDERGKKVKCTAPQYVDFVMSSVQKLVTDEDVFPTKYGREFPSSFESLVRKICRHLFHVLAHIYWAHFKETLALELHGHLNTLYVHFILFAREFNLLDPKETAIMDDLTEVLCSGAGGVHSGGSGDGAGSGGPGAQNHVKER
For B1, the binding [1] was “binds”, the binding (FLAG-NDR1^3A (human)) was “binds” and the binding (FLAG-NDR1^3E (human)) was “binds”.

B2: endogenous Mob2 (protein, UniProt Q70IA6 1-237)
chain: MDWLMGKSKAKPNGKKPAAEERKAYLEPEHTKARITDFQFKELVVLPREIDLNEWLASNTTTFFHHINLQYSTISEFCTGETCQTMAVCNTQYYWYDERGKKVKCTAPQYVDFVMSSVQKLVTDEDVFPTKYGREFPSSFESLVRKICRHLFHVLAHIYWAHFKETLALELHGHLNTLYVHFILFAREFNLLDPKETAIMDDLTEVLCSGAGGVHSGGSGDGAGSGGPGAQNHVKER
In the case of B2, the binding (LAP-tagged NDR1 (human)) is reported as “binds”.

B3: GFP-Mob1A (protein, UniProt Q9H8S9 1-216)
chain: MSFLFSSRSSKTFKPKKNIPEGSHQYELLKHAEATLGSGNLRQAVMLPEGEDLNEWIAVNTVDFFNQINMLYGTITEFCTEASCPVMSAGPRYEYHWADGTNIKKPIKCSAPKYIDYLMTWVQDQLDDETLFPSKIGVPFPKNFMSVAKTILKRLFRVYAHIYHQHFDSVMQLQEEAHLNTSFKHFIFFVQEFNLIDRRELAPLQELIEKLGSKDR
For B3, the binding [1] was “binds”, the binding (FLAG-NDR1^3A (human)) was “binds” and the binding (FLAG-NDR1^3E (human)) was “binds”.
